Positions count from the first letter of the chain named. No constants are given. Whether binding was seen depends on the method and setting. Some entries that bind do so weakly or less than the wild type.
Tests used:
Assay in all cases: ELISA with truncated synthetic peptides of the CXCR2 N-terminus, single condition
pepN1-19 = biological target: T1, pepN1-19
T1 sequence (peptide): MEDFNMESDSFEDFWKGED

pepN7-19 = biological target: T2, pepN7-19
T2 sequence (peptide): ESDSFEDFWKGED

pepN1-35 = biological target: pepN1-35
pepN1-28 = biological target: pepN1-28

Measured: binding

B1: abN48-IgG1 (antibody, V domains shown)
VH: QVQLVQSGAEVKKPGSSVKVSCKASGGTLSSYAISWVRQAPGQGPEWMGWINPNSGGTNYAQKFQGRVTMTRDTSISTAYMELSRLRPDDTAVYYCASGYCSSTSCYDYWGQGTLVTVSS
VL: QAVLTQPSSLSASPGASVSLTCTLRSGINVGAYRIYWYQQKPGSPPQFLLRYKSDSDKQQGSGVPSRFSGSRDASANAGILLISGLRSEDEADYYCAIWHSSAWVFGGGTQLTVLG
notes: also called full-length abN48
binds: all assays above

B2: abN48-2-IgG1 (antibody, V domains shown)
VH: B1 VH with S103R, S105R
VL: B1 VL
notes: Full-length human IgG1, lambda light chain; also called ab48-2-IgG1; abN48-2-IgG2 (as misprinted)
binds: all assays above

Source: US20220332835A1 (SHANGHAITECH UNIVERSITY, published 2022)
